Measurements taken from PubChem BioAssay AID624297 (National Center for Advancing Translational Sciences (NCATS), 2012).
Among all 340,000 compounds or so, about 6,200 (1.8%) were called active. This list was built around the results that the source calls inconclusive (neither active nor inactive); the mix of calls is not that of the screen. Calls come from the whole dose curve; as a rule, active = well fitted activation curve with a large enough effect; inconclusive = small, poorly fitted or top-dose-only effect; inactive = no such curve, though single readings can be large or run the other way. Where the call is inconclusive, the potency comes from a doubtful curve fit.

Assay: A quantitative high throughput screen for small molecules that induce DNA re-replication in SW480 colon adenocarcinoma cells. For re-replication activation: % of control where 0% means no effect. Note: nearly all actives have a fitted effect of over 55% in size.
Conditions: Hoechst DNA content imaging, 48 h; re-replication activation: at 46.1 µM (top of the series) unless noted
Outline: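 Compounds, transferred as 23 nL by pin tool, were incubated with cells for 48 hr; DNA content per nucleus was then quantified by Hoechst staining and fluorescence plate imaging.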
Potency is the fitted concentration of half-maximal effect.

**Q.** Which “re-replication activation” value does the source give for `O=C(NCCN1CCCC1)c1ccccc1Cl` here?
**A.** The value was inactive: -13.2%.

**Q.** For `CCOc1ccc(CN2C(=O)c3ccccc3C2C(=O)NC(C)CC)cc1OC` (stereo not given), which “re-replication activation” value is on record?
**A.** The value was inactive: 0.726%.

**Q.** Which Potency does the source give for `COc1cc2c(Nc3ccc(Br)cc3F)ncnc2cc1OCC1CCN(C)CC1` here?
**A.** Its Potency is inconclusive: 21.1 µM [activator, partial curve].

**Q.** For `COc1cccc2cc(C(=O)NCc3ccco3)c(=Nc3ccc(C(=O)O)cc3)oc12`, which Potency is on record?
**A.** Its Potency is inconclusive: 20.6 µM [activator, single point].

**Q.** Which Potency does the source give for `O=C1/C(=C\c2ccc(-c3ccccc3Cl)o2)SC(=S)N1CC1CCCO1` (stereo not given) here?
**A.** The Potency was inconclusive: 2.31 µM [activator, partial curve, poor fit].

**Q.** Which “re-replication activation” value does the source give for `CCc1nnc(NC(=O)c2cnccn2)s1` here?
**A.** The value was inactive: -0.122%.

**Q.** For `N#Cc1ccc(CSc2nnc(-c3ccccn3)n2-c2ccccc2)cc1`, which “re-replication activation” value is on record?
**A.** The value was inactive: -0.254%.

**Q.** For `O=C(CSc1cccc2cccnc12)Nc1ccc(S(=O)(=O)N2CCOCC2)cc1`, which Potency is on record?
**A.** Its Potency is inconclusive: 29.1 µM [activator, single point].

**Q.** For `CCOc1ccc(OCCC(=O)N(CC)CC(=O)NCc2ccc(Cl)cc2)cc1`, which Potency is on record?
**A.** Its Potency is inconclusive: 4.61 µM [activator, full curve, poor fit].

**Q.** With `O=C(NCc1ccon1)C1CCC(=O)N(CCc2ccc(Cl)cc2)C1` (stereo not given) as the compound, how does the Potency read?
**A.** The Potency was inconclusive: 29.1 µM [activator, single point].

**Q.** With `Cc1ccc(NC(=O)Cn2cc(C=O)c3ccccc32)cc1` as the compound, how does the Potency read?
**A.** The Potency was active: 14.6 µM.

**Q.** Which Potency does the source give for `O=C(CP(=O)(c1ccccc1)c1ccccc1)N/N=C/c1cc(Br)cc(Br)c1O` here?
**A.** The Potency was inconclusive: 6.51 µM [activator, single point].

**Q.** For `O=C(COc1ccccc1)N1CCc2ccccc21`, which Potency is on record?
**A.** The Potency was inconclusive: 0.92 µM [activator, full curve, poor fit].

**Q.** For `COc1ccc(-c2cnc3ccccc3n2)cc1NC(=O)CNC(=O)c1ccccc1`, which “re-replication activation” value is on record?
**A.** The value was inactive: 27.7%.

**Q.** With `Cc1cc(C)nc(NC(=S)Nc2ccc(Br)cc2Cl)c1` as the compound, how does the Potency read?
**A.** Its Potency is inconclusive: 7.31 µM [activator, partial curve].

**Q.** Which Potency does the source give for `Clc1cccc(Nc2nc(-c3ccncc3)cs2)c1` here?
**A.** The Potency was active: 14.6 µM.

**Q.** For `Clc1ccc(Cn2c(-c3cccnc3Cl)nc3ccccc32)c(Cl)c1`, which “re-replication activation” value is on record?
**A.** The value was inactive: 3.63%.

**Q.** For `Cc1nc(N2CCCCC2)c2c(C)c(C(=O)Nc3cccc(C(F)(F)F)c3)sc2n1`, which “re-replication activation” value is on record?
**A.** The value was inactive: -149%.

**Q.** Which Potency does the source give for `COc1ccc(-c2nnnn2-c2ccccc2OC)cc1` here?
**A.** Its Potency is inconclusive: 18.4 µM [activator, single point].

**Q.** For `c1ccc(-c2ccc(C3=Nn4c(nnc4-c4cc(-c5ccccc5)n[nH]4)SC3)cc2)cc1`, which Potency is on record?
**A.** The Potency was inconclusive: 25.9 µM [activator, single point].

**Q.** With `CC(=O)N1c2ccc(C)cc2Sc2c1ccc1ccccc21` as the compound, how does the Potency read?
**A.** Its Potency is inconclusive: 18.4 µM [activator, partial curve, poor fit].

**Q.** Which Potency does the source give for `Cc1ccc(N(C(=O)c2csnn2)C(C(=O)NC(C)(C)C)c2ccccn2)cc1` (stereo not given) here?
**A.** The Potency was inconclusive: 6.51 µM [activator, single point].

**Q.** Which Potency does the source give for `O=C(c1ccc(Cl)cc1)C(CN1CCCCC1)c1ccccc1` (stereo not given) here?
**A.** The Potency was inconclusive: 4.61 µM [activator, full curve, poor fit].

**Q.** With `Cc1ccc(S(=O)(=O)N2CCC(C(=O)N/N=C/c3ccccc3[N+](=O)[O-])CC2)cc1` as the compound, how does the Potency read?
**A.** The Potency was inconclusive: 1.64 µM [activator, partial curve, poor fit].

**Q.** Which Potency does the source give for `COCCn1c(C)cc(C(=O)COc2ccc(C)nc2[N+](=O)[O-])c1C` here?
**A.** The Potency was inconclusive: 29.1 µM [activator, partial curve, poor fit].

**Q.** Which Potency does the source give for `Cc1cc2nc(C)n(CCCN)c2cc1C` here?
**A.** The Potency was inconclusive: 29.1 µM [activator, single point].

**Q.** With `Cc1ccc(OCCOc2ccc(Br)cc2)c([N+](=O)[O-])n1` as the compound, how does the “re-replication activation” value read?
**A.** The value was inactive: 1.45%.

**Q.** With `CCOC(=O)C1Nc2ccccc2C2C(O)C(O)CC12` (stereo not given) as the compound, how does the Potency read?
**A.** Its Potency is inconclusive: 18.4 µM [activator, single point].

**Q.** With `COc1ccc(Cc2nnc(NC(=O)Nc3ccccc3F)s2)cc1OC` as the compound, how does the Potency read?
**A.** The Potency was inconclusive: 20.6 µM [activator, single point].

**Q.** Which Potency does the source give for `CCOc1ncccc1C(=O)Nc1cc(S(=O)(=O)N2CCOCC2)ccc1OCC(F)(F)F` here?
**A.** The Potency was inconclusive: 4.11 µM [activator, single point].

**Q.** For `Cc1ccc(/C=N/NC(=O)C2CC(=O)N(c3ccccc3)C2)s1` (stereo not given), which Potency is on record?
**A.** Its Potency is inconclusive: 20.6 µM [activator, partial curve, poor fit].

**Q.** For `CNC(=O)C1CC(=O)N(CCc2ccc(OC)c(OC)c2)C(=Nc2ccc(F)cc2)S1` (stereo not given), which Potency is on record?
**A.** The Potency was inconclusive: 17.8 µM [activator, single point].

**Q.** Which “re-replication activation” value does the source give for `O=C(c1cc(COc2cccc3cnccc23)on1)N1CCCC(CCCO)C1` (stereo not given) here?
**A.** The value was inactive: 4.58%.

**Q.** Which Potency does the source give for `CCC1CCCCN1CCCNC(=O)Cn1nc(-c2ccccc2)ccc1=O` (stereo not given) here?
**A.** The Potency was inconclusive: 5.17 µM [activator, full curve, poor fit].

**Q.** For `COCCNC(=O)CN(c1cc(Cl)ccc1OC)S(C)(=O)=O`, which Potency is on record?
**A.** The Potency was inconclusive: 29.1 µM [activator, partial curve, poor fit].

**Q.** Which Potency does the source give for `CC(NC(=O)Nc1ccc2c(c1)OCO2)c1ccncc1` (stereo not given) here?
**A.** Its Potency is inconclusive: 29.1 µM [activator, single point].

**Q.** With `COC(=O)c1ccc(Cl)c(S(=O)(=O)N2CCCC2)c1` as the compound, how does the “re-replication activation” value read?
**A.** Its value is inactive: -8.95%.

**Q.** For `N=c1c(S(=O)(=O)c2ccc(Cl)cc2)cc2c(=O)n3ccccc3nc2n1Cc1ccco1`, which Potency is on record?
**A.** Its Potency is active: 5.17 µM.

**Q.** Which Potency does the source give for `O=C(CSc1nnnn1-c1ccc2c(c1)OCO2)NCc1ccccc1` here?
**A.** Its Potency is active: 16.4 µM.

**Q.** For `COc1ccccc1-c1cc(C(F)(F)F)nc(S(=O)(=O)CCCC(=O)NC(C)C)n1`, which Potency is on record?
**A.** Its Potency is active: 2.91 µM.

**Q.** With `O=C(c1cn(-c2ccccc2)nc1-c1ccccc1)N1CCN(c2ccccn2)CC1` as the compound, how does the Potency read?
**A.** The Potency was inconclusive: 29.1 µM [activator, single point].

**Q.** For `COc1ccc(CNS(=O)(=O)CCNCc2ccccc2OC)cc1`, which “re-replication activation” value is on record?
**A.** The value was inactive: -4.26%.

**Q.** Which “re-replication activation” value does the source give for `CCS(=O)(=O)c1ncc(CO)n1CCc1ccccc1` here?
**A.** The value was inactive: 0.934%.

**Q.** Which Potency does the source give for `CCOc1ccc(/C=N/Nc2nc(C)cs2)c(O)c1` here?
**A.** Its Potency is inconclusive: 6.51 µM [activator, full curve, poor fit].

**Q.** With `Nc1c(Cl)cc(C2=NCCn3c2c2ccc([N+](=O)[O-])cc2[n+]3[O-])cc1Cl` as the compound, how does the Potency read?
**A.** The Potency was inconclusive: 29.1 µM [activator, single point].
